The supplement of paper PMC10849652
Some of the results follow.

Amino acid sequences for entries named in this document (tags omitted). A change or cut given only in a name is not applied to a line headed by its entry.
UniProt P55008: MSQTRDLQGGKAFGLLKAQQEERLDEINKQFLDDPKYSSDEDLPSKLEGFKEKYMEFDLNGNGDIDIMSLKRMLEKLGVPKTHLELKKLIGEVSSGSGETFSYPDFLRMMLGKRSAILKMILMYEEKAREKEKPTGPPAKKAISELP
UniProt O43572: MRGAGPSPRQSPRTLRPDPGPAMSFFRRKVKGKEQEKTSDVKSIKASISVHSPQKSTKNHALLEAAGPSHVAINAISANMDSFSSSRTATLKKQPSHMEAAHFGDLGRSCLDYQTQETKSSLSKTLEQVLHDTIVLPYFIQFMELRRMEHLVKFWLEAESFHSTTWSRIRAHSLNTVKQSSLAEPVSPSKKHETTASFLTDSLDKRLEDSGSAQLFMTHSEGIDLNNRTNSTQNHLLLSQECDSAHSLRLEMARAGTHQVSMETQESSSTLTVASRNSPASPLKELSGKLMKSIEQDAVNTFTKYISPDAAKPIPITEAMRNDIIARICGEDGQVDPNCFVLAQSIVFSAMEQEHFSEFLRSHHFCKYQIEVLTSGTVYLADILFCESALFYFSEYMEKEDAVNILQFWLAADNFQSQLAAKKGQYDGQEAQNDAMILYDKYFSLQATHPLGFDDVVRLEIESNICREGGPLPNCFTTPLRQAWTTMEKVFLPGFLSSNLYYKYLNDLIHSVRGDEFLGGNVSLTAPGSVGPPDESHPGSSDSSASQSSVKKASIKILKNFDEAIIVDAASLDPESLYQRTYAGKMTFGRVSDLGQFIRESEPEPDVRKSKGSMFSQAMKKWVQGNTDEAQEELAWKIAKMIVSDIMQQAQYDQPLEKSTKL
UniProt Q96A54: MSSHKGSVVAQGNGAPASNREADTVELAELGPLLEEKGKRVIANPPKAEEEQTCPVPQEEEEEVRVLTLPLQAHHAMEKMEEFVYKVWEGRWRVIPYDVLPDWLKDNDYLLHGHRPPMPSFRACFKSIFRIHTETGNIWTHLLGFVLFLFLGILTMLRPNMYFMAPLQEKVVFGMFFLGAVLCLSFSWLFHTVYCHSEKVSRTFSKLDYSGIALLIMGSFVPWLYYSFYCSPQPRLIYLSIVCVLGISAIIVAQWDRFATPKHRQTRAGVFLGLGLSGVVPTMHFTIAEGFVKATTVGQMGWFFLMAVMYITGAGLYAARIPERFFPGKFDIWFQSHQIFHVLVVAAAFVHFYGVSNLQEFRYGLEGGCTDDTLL
UniProt P20933: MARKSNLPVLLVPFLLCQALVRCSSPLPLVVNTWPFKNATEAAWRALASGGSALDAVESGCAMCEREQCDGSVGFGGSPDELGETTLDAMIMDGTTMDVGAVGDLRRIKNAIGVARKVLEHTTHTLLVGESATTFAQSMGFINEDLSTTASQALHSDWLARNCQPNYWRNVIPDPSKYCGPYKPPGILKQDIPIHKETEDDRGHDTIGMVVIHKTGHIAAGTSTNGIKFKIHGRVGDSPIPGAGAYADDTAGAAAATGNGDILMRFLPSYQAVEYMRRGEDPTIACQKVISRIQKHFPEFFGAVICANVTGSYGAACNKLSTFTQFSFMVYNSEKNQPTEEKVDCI
UniProt Q9ULC5: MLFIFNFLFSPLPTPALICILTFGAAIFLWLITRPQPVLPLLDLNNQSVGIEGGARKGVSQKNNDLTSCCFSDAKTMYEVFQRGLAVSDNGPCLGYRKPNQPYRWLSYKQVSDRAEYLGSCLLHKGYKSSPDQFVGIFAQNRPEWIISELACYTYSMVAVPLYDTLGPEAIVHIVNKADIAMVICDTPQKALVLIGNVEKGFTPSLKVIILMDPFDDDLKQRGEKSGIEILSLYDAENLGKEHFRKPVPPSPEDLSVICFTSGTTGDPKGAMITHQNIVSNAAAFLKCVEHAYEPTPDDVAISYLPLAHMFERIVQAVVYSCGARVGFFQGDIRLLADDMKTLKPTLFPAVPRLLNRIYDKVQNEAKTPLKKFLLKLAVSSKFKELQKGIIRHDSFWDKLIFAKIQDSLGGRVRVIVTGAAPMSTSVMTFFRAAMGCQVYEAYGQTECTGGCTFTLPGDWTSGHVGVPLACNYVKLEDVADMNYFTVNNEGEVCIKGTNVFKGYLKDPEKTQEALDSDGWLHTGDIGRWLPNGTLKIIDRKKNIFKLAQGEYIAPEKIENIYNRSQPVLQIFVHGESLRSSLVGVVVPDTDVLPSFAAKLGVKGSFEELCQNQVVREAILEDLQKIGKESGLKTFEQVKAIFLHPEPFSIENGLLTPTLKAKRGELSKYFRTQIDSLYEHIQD
UniProt Q9H9F9, whole entry, looked up: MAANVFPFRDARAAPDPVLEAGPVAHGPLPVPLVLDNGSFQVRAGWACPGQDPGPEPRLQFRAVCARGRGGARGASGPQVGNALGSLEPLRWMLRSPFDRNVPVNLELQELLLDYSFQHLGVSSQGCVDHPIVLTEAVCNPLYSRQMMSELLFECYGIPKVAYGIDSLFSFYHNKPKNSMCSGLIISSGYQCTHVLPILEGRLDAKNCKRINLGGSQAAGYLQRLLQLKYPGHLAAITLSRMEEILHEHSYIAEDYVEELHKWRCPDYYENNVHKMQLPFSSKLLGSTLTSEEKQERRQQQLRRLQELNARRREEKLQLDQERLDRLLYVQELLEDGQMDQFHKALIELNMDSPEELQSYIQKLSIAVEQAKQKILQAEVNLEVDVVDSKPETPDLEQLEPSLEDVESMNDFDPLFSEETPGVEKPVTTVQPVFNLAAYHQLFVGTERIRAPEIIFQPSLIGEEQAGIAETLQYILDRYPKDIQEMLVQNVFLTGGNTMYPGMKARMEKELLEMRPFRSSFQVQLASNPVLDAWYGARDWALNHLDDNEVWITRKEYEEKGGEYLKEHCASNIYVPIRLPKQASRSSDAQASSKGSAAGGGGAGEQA
UniProt P78536: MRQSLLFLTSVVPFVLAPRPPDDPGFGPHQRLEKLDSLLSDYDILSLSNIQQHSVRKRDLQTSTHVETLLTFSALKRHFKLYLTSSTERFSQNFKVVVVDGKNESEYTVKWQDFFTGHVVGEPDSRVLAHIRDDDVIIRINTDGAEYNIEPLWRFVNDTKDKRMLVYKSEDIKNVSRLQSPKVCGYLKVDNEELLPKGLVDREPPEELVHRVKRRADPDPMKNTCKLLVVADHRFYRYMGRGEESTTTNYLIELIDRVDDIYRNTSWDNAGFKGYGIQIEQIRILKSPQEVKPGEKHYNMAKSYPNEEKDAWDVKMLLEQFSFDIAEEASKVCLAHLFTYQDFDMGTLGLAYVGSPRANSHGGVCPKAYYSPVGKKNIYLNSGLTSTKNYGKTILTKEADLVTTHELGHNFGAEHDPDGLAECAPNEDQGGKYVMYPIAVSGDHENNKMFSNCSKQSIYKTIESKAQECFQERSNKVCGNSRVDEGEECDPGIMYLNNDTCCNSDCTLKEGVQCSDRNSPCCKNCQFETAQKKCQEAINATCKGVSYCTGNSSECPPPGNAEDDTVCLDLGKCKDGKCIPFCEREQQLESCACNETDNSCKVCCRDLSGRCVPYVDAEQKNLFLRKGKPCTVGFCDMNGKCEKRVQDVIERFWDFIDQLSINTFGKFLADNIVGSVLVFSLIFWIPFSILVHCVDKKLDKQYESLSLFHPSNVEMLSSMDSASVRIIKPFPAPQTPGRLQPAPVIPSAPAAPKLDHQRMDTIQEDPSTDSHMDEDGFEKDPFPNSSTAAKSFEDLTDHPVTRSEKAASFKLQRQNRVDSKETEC
UniProt Q53H80, whole entry, looked up: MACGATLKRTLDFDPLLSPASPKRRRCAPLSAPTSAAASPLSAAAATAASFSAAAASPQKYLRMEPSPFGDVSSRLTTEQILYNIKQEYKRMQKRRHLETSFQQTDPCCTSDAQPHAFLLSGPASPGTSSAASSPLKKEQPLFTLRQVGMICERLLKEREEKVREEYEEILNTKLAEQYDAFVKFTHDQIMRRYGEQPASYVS
UniProt Q9Y4W6: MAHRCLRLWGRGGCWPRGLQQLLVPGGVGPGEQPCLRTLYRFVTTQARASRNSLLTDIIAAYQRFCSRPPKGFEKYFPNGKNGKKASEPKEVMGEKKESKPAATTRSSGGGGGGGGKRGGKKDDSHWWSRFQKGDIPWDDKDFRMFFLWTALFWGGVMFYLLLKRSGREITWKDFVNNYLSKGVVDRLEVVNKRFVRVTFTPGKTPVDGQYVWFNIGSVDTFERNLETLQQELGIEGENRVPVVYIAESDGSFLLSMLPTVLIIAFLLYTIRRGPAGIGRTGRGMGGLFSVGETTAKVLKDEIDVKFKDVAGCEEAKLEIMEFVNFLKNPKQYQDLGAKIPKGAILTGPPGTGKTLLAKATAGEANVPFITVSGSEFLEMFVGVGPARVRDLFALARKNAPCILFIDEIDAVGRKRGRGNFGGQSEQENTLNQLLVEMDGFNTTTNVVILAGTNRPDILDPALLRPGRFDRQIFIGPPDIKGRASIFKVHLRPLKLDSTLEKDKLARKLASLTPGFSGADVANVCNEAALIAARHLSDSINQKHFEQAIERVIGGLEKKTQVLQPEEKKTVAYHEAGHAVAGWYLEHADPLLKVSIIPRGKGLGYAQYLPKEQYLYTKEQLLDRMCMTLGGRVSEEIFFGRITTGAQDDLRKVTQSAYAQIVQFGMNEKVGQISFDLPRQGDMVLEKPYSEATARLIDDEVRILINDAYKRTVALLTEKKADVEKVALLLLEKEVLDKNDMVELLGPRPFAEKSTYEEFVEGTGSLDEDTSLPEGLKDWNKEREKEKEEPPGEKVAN
UniProt Q9H981, whole entry, looked up: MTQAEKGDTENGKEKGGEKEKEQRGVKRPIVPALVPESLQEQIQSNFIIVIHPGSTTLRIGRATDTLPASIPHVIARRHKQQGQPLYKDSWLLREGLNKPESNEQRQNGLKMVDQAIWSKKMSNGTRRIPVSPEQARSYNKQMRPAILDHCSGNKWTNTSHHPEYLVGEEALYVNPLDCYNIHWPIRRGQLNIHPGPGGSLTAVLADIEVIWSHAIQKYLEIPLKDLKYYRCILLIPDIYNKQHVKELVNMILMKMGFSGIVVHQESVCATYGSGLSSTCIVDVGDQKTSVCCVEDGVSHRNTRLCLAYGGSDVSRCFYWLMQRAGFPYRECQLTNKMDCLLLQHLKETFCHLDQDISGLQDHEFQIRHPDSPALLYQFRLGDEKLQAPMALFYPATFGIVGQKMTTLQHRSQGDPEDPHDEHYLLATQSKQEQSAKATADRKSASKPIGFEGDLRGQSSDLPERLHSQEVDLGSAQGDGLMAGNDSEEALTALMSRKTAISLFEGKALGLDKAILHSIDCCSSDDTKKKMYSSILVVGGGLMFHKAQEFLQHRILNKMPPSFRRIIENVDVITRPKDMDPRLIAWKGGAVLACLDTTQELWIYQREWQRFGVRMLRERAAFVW
UniProt Q8TED9: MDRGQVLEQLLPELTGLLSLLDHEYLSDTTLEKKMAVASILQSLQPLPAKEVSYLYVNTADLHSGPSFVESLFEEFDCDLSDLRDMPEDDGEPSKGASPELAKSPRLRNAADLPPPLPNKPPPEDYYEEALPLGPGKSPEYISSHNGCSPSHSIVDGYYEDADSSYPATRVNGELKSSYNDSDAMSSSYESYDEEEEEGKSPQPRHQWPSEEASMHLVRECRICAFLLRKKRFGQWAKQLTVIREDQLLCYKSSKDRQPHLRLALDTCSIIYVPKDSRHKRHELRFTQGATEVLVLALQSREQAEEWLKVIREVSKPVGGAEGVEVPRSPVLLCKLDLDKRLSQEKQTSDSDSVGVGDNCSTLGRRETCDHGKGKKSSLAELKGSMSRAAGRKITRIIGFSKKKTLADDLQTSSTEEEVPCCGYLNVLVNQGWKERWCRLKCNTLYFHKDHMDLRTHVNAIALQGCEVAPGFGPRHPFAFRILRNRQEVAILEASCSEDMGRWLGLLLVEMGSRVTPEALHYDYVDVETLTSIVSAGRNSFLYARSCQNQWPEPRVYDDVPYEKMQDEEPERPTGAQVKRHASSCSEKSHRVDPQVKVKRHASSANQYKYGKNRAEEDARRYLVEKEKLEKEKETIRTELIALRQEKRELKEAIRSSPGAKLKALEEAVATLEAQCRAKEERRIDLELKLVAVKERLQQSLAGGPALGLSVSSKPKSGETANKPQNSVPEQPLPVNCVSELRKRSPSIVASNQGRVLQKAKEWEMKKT
UniProt Q9NRZ5: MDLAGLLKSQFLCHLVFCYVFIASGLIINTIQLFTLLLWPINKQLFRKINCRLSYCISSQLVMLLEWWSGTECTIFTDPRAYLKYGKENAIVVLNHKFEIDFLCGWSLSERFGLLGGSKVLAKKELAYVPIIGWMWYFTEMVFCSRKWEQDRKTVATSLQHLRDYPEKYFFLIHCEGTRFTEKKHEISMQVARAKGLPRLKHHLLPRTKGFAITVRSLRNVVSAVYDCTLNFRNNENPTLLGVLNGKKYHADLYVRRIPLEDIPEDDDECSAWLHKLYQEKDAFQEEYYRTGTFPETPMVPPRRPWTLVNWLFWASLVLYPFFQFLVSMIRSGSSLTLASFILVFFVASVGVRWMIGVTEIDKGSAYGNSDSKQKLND

Assays:
Experiment in all cases: log2 fold change, soluble protein after heating vs DMSO (PISA); higher = thermal stabilisation; K562 lysate, 10 uM; active = over 0.2 and 3.5 SD of the protein, either way, in both replicates (recomputed)
erlotinib = compound: C#Cc1cccc(Nc2ncnc3cc(OCCOC)c(OCCOC)cc23)c1 [erlotinib]
How it was run: (§1)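 Following dounce homogenisation of K562 pellets in PBS pH 7.4 with 1 mM MgCl2, crude extract at 1 mg/mL protein was incubated for 30 min with 10 μM compound. Aliquots were then heated for 3 min over 48°C-58°C and pooled, NP-40 was added to 0.5% at 4°C, and soluble protein was recovered as the supernatant at 21,000xg for 90 min. Channel-sum-equalised TMTpro 16plex LC-MS/MS quantified this protein. Each value, from duplicates, is a log-two fold change in thermal stability relative to solvent controls.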

[1] = compound: C/C(=N\NC(=O)C1=CC(=CC=C1)S(=O)(=O)N2CCOCC2)/C3=C(C=CC(=C3)Cl)O
How it was run: as §1

[2] = compound: C1=CC(=CC=C1C2=NC3=C(N2)C=C(C=C3)C(=O)N)OC4=CC=C(C=C4)Cl
How it was run: as §1

[3] = compound: C1=CC2=C(C=CC(=C2)/C=C\3/C(=O)NC(=NCC4=CC=CS4)S3)N=C1
How it was run: as §1

[4] = compound: C1=CC=C(C=C1)C2=NC(=C(N2)C3=CC=NC=C3)C4=CC(=C(C=C4)Cl)O
How it was run: as §1

[5] = compound: C1=CC=C2C(=C1)C3=NNC4=CC=CC(=C43)C2=O
How it was run: as §1

IRAK-1-4 Inhibitor I = compound: C1COCCN1CCN2C3=CC=CC=C3N=C2NC(=O)C4=CC(=CC=C4)[N+](=O)[O-] [IRAK-1-4 Inhibitor I]
How it was run: as §1

[6] = compound: CC(=O)c1cnc2ccc(-c3cc(Cl)c(O)c(Cl)c3)nc2c1N[C@H]1CC[C@H](CN(C)C)CC1
How it was run: as §1

ralimetinib = compound: CC(C)(C)Cn1c(N)nc2ccc(-c3[nH]c(C(C)(C)C)nc3-c3ccc(F)cc3)nc21 [ralimetinib]
How it was run: as §1

[7] = compound: CC(C)(O)CC(=O)NCCn1ccc2ncnc(Nc3ccc(Oc4cccc(C(F)(F)F)c4)c(Cl)c3)c21
How it was run: as §1

[8] = compound: CC(C)C1=C2N=C(C=C(N2N=C1)NCC3=CC=CC=C3)NCCCCCCN
How it was run: as §1

[9] = compound: CC1=C(C(CC(=O)N1)C2=CC=C(C=C2)C(F)(F)F)C(=O)NC3=C(C=C4C(=C3)C=NN4)F
How it was run: as §1

[10] = compound: CC1=C(C2=C(C=C1)C(=O)C3=CC=CC=C3N2CCCN)C
How it was run: as §1

[11] = compound: CC1=C(C=C(C=C1)NC(=O)C2=CC(=CC=C2)C(C)(C)C#N)NC3=CC4=C(C=C3)N=CN(C4=O)C
How it was run: as §1

[12] = compound: CC1=C(C=C(C=C1)NC(=O)C2=CC(=CC=C2)N(C)C)NC(=O)C3=CC=C(C=C3)O
How it was run: as §1

[13] = compound: CC1=CC=C(C=C1)SC2=C3C=C(SC3=CN=C2)C(=O)N
How it was run: as §1

[14] = compound: C1=CC2=NC=CN=C2C=C1/C=C/3\C(=O)NC(=O)S3
How it was run: as §1

[15] = compound: C1CCN(C1)C(=O)NC2=CC=CC(=C2)NC3=NC=C(C(=N3)NCCC4=CN=CN4)Br
How it was run: as §1

[16] = compound: C1CN(CCC1(CC2=CC=C(C=C2)Cl)N)C3=NC=NC4=C3C=CN4
How it was run: as §1

ibrutinib = compound: C=CC(=O)N1CCC[C@@H](n2nc(-c3ccc(Oc4ccccc4)cc3)c3c(N)ncnc32)C1 [ibrutinib]
How it was run: as §1

Measured: log2 fold change

AIF1 (UniProt P55008)
inactive: erlotinib -0.06 | [1] 0.106 | [2] -0.378 | [3] 0.055 | [4] -0.243 | [5] 0.08 | IRAK-1-4 Inhibitor I -0.058 | [6] 0.062 | ralimetinib -0.097 | [7] -0.05 | [8] -0.186 | [9] 0.029 | [10] 0.119 | [11] 0.056 | [12] -0.033 | [13] 0.004

AKAP10 (UniProt O43572)
inactive: erlotinib -0.028 | [2] -0.077 | [14] -0.048 | [4] 0.032 | [15] -0.004 | [16] -0.127 | IRAK-1-4 Inhibitor I 0.012 | ibrutinib -0.054 | [6] 0.064 | ralimetinib 0 | [7] 0.033 | [8] 0.075 | [9] 0.125 | [10] 0.108 | [11] 0.008 | [12] 0 | [13] -0.035

ADIPOR1 (UniProt Q96A54)
inactive: erlotinib 0.04 | [1] -0.025 | [2] 0.062 | [3] 0.04 | [14] -0.129 | [4] -0.051 | [5] 0.013 | [15] -0.029 | [16] 0.11 | IRAK-1-4 Inhibitor I 0 | ibrutinib 0.001 | ralimetinib -0.006 | [7] -0.034 | [8] -0.196 | [9] 0.03 | [10] -0.037 | [11] 0.05 | [12] 0.036

AGA (UniProt P20933)
inactive: erlotinib 0.067 | [1] -0.006 | [2] 0.011 | [3] -0.003 | [4] 0.164 | [5] 0.069 | [15] -0.047 | [16] 0.096 | IRAK-1-4 Inhibitor I 0.004 | [6] -0.165 | ralimetinib -0.06 | [7] -0.053 | [8] -0.024 | [11] -0.026 | [12] -0.05 | [13] -0.127

ACTR3B (UniProt Q9P1U1)
inactive: erlotinib -0.039 | [1] -0.069 | [2] -0.041 | [3] -0.003 | [14] 0.062 | [4] 0.077 | [5] -0.144 | [15] 0.041 | [16] 0.053 | IRAK-1-4 Inhibitor I 0.011 | ibrutinib 0.008 | [6] 0.005 | ralimetinib -0.068 | [7] 0.046 | [8] 0.023 | [9] -0.056 | [10] 0.024 | [11] -0.023 | [12] -0.016 | [13] -0.002

ACSL5 isoform 3 (UniProt Q9ULC5)
inactive: erlotinib 0.043 | [2] -0.172 | [14] -0.085 | [4] 0.03 | IRAK-1-4 Inhibitor I 0.056 | ibrutinib -0.013 | [6] -0.014 | ralimetinib 0 | [7] -0.078 | [8] 0.032 | [9] 0.039 | [10] 0.043 | [11] -0.05 | [12] 0.036 | [13] 0.005

AEBP2 (UniProt Q6ZN18)
inactive: erlotinib -0.142 | [2] 0.045 | [14] 0.06 | [4] -0.052 | IRAK-1-4 Inhibitor I -0.041 | ibrutinib 0.201 | [6] -0.061 | ralimetinib 0.051 | [7] 0.043 | [8] -0.014 | [10] -0.105 | [11] 0.107 | [12] -0.052 | [13] -0.092

ACTR5 (UniProt Q9H9F9)
inactive: erlotinib -0.055 | [1] 0.055 | [2] -0.053 | [3] -0.043 | [14] 0.047 | [4] -0.089 | [5] 0.068 | [15] -0.194 | [16] 0.031 | IRAK-1-4 Inhibitor I -0.009 | ibrutinib 0.134 | ralimetinib 0.009 | [7] -0.035 | [8] -0.053 | [9] -0.071 | [10] -0.069 | [11] -0.062 | [12] -0.057

ADAM17 (UniProt P78536)
inactive: erlotinib 0.021 | [1] -0.013 | [2] 0.017 | [3] 0.023 | [14] -0.023 | [4] 0.044 | [5] -0.115 | [15] 0.052 | [16] -0.093 | IRAK-1-4 Inhibitor I 0.04 | ibrutinib 0.037 | ralimetinib -0.012 | [7] -0.032 | [8] -0.056 | [9] 0.16 | [10] -0.029 | [11] -0.013 | [12] -0.027

AKIRIN2 (UniProt Q53H80)
inactive: erlotinib -0.035 | [1] 0.032 | [2] -0.11 | [3] -0.043 | [4] 0.063 | [5] -0.01 | [15] 0.142 | [16] 0.005 | IRAK-1-4 Inhibitor I 0.116 | [6] -0.155 | ralimetinib 0.025 | [7] 0.112 | [8] -0.151 | [9] -0.105 | [10] -0.057 | [11] -0.074 | [12] 0.026 | [13] 0.096

AGAP1 (UniProt Q9UPQ3)
inactive: erlotinib -0.015 | [1] -0.08 | [2] 0.002 | [3] -0.074 | [14] -0.018 | [4] 0.02 | [5] 0.113 | IRAK-1-4 Inhibitor I -0.014 | ibrutinib -0.003 | [6] -0.005 | ralimetinib 0.032 | [7] 0.044 | [8] -0.011 | [9] 0.011 | [10] 0.17 | [11] 0.058 | [12] 0.004 | [13] -0.003

ACTN2, A0A494C031
inactive: erlotinib -0.005 | [1] -0.351 | [2] 0.124 | [3] -0.081 | [14] 0.026 | [4] -0.059 | [5] -0.066 | [15] -0.087 | [16] -0.017 | IRAK-1-4 Inhibitor I 0.153 | ibrutinib 0.042 | [6] -0.008 | ralimetinib -0.121 | [7] -0.549 | [8] -0.132 | [9] 0.155 | [11] -0.003 | [12] -0.118 | [13] -0.056

ACSL6 isoform 1 (UniProt Q9UKU0)
inactive: erlotinib -0.032 | [2] -0.312 | [14] 0.025 | [4] 0.007 | IRAK-1-4 Inhibitor I -0.031 | ibrutinib 0.035 | [6] 0.056 | ralimetinib 0.098 | [7] -0.028 | [8] -0.01 | [12] 0.085 | [13] 0.068

AGGF1 (UniProt Q8N302)
inactive: erlotinib -0.015 | [1] -0.056 | [2] 0.054 | [3] -0.19 | [14] -0.077 | [4] 0.018 | [5] 0.057 | [15] -0.038 | [16] -0.022 | IRAK-1-4 Inhibitor I 0.023 | ibrutinib 0.034 | [6] 0.077 | ralimetinib -0.014 | [7] -0.023 | [8] -0.017 | [9] -0.011 | [11] 0.034 | [12] -0.04 | [13] -0.341

AFG3L2 (UniProt Q9Y4W6)
inactive: erlotinib 0.029 | [1] -0.005 | [2] 0.036 | [3] 0.015 | [14] -0.022 | [4] -0.023 | [5] -0.018 | [15] -0.02 | [16] 0.036 | IRAK-1-4 Inhibitor I 0.002 | ibrutinib 0.002 | [6] 0.011 | ralimetinib -0.041 | [7] -0.102 | [8] -0.026 | [9] -0.001 | [10] 0.042 | [11] -0.005 | [12] 0.015 | [13] 0

2 records picked at random from those above, as already listed:
AGA (UniProt P20933)
inactive: erlotinib 0.067 | [1] -0.006 | [2] 0.011 | [3] -0.003 | [4] 0.164 | [5] 0.069 | [15] -0.047 | [16] 0.096 | IRAK-1-4 Inhibitor I 0.004 | [6] -0.165 | ralimetinib -0.06 | [7] -0.053 | [8] -0.024 | [11] -0.026 | [12] -0.05 | [13] -0.127

ADAM17 (UniProt P78536)
inactive: erlotinib 0.021 | [1] -0.013 | [2] 0.017 | [3] 0.023 | [14] -0.023 | [4] 0.044 | [5] -0.115 | [15] 0.052 | [16] -0.093 | IRAK-1-4 Inhibitor I 0.04 | ibrutinib 0.037 | ralimetinib -0.012 | [7] -0.032 | [8] -0.056 | [9] 0.16 | [10] -0.029 | [11] -0.013 | [12] -0.027

Further records follow.

AGFG2 (UniProt O95081)
inactive: erlotinib 0.008 | [1] -0.201 | [2] 0.158 | [3] -0.044 | [4] -0.031 | [5] 0.035 | [15] 0.01 | [16] 0.04 | IRAK-1-4 Inhibitor I -0.04 | [6] 0.202 | ralimetinib 0.11 | [7] 0.117 | [8] -0.244 | [10] 0 | [11] -0.088 | [12] -0.067 | [13] 0

ACTR8 (UniProt Q9H981)
inactive: erlotinib -0.296 | [2] 0.173 | [4] 0.131 | [15] 0.101 | [16] 0.099 | IRAK-1-4 Inhibitor I -0.087 | [6] -0.213 | ralimetinib 0.192 | [7] -0.185 | [8] -0.058 | [9] -0.088 | [10] -0.128 | [12] 0.157 | [13] 0.121

AKAP17A (UniProt Q02040)
inactive: erlotinib 0.034 | [2] 0.016 | [4] -0.061 | IRAK-1-4 Inhibitor I -0.056 | [6] -0.108 | ralimetinib 0.025 | [7] -0.084 | [8] 0.098 | [10] 0.196 | [11] -0.114 | [12] -0.02 | [13] 0.25

AFAP1L1 (UniProt Q8TED9)
inactive: erlotinib 0.015 | [2] 0.044 | [14] -0.089 | [15] -0.072 | [16] 0.114 | ibrutinib 0.098 | [6] -0.099 | [8] 0.047 | [10] -0.032 | [11] -0.136 | [13] -0.116

AGPAT4 (UniProt Q9NRZ5)
inactive: erlotinib 0.08 | [2] -0.024 | [14] 0.176 | [4] -0.073 | [15] 0.072 | [16] -0.042 | IRAK-1-4 Inhibitor I -0.024 | ibrutinib -0.001 | ralimetinib -0.026 | [7] 0.06 | [8] 0.053 | [11] -0.025 | [12] 0.032
